Results as given in the supplement of paper PMC6411743.
± gives the standard deviation of the averaged measurements. Only a part is listed here, and it is no random draw.

By UniProt entry, the sequences of proteins in these tests, tags left out. Where a name states a change or a piece, a line headed by the entry shows the natural chain unless it says otherwise.
UniProt Q9Y624: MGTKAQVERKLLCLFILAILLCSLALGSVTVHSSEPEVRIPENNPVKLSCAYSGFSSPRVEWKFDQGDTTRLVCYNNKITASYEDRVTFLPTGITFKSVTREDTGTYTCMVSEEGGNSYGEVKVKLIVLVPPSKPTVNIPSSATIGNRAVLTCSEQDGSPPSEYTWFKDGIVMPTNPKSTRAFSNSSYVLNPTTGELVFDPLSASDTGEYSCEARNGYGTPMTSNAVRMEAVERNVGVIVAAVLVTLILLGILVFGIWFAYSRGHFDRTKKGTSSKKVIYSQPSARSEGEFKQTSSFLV
UniProt Q5T8I9: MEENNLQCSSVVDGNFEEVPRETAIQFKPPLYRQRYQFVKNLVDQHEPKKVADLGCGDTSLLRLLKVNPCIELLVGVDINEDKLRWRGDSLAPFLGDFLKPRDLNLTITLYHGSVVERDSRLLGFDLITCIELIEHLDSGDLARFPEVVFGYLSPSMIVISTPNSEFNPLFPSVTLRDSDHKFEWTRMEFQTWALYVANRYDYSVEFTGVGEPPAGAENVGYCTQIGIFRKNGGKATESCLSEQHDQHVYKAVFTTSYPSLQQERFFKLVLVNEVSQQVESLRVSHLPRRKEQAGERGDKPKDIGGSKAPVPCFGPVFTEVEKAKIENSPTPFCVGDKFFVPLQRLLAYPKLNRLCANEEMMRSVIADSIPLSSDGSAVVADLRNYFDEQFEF
UniProt P15923: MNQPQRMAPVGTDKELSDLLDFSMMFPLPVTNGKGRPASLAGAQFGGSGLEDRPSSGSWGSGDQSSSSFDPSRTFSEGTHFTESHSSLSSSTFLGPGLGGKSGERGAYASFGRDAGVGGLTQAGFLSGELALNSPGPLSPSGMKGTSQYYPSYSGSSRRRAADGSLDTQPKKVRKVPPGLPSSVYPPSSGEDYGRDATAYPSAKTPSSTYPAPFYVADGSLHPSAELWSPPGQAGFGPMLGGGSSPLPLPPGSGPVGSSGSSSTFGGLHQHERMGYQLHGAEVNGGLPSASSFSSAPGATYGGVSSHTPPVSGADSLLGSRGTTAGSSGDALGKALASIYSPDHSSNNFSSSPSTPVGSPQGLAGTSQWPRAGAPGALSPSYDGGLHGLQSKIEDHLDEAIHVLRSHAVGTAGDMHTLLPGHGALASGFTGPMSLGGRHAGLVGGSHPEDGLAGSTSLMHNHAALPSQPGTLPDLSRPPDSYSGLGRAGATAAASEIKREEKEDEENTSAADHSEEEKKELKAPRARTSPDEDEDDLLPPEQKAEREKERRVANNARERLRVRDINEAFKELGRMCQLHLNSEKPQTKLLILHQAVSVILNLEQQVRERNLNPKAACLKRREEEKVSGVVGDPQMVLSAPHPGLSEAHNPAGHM
UniProt Q13277: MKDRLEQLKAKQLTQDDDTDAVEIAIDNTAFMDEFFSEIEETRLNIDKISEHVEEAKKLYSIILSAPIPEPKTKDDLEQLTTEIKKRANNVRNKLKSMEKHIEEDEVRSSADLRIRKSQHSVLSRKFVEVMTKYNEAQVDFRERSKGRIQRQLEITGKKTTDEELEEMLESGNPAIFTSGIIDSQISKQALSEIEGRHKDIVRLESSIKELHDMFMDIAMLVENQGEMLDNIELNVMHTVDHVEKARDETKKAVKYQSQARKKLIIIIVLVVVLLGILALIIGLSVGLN
UniProt P09211: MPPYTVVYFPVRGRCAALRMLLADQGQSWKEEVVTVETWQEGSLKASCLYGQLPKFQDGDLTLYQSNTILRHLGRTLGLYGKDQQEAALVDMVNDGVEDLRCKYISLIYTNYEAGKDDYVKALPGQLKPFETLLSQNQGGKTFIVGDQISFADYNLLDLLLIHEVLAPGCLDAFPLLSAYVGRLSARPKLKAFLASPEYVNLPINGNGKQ
UniProt Q8N543: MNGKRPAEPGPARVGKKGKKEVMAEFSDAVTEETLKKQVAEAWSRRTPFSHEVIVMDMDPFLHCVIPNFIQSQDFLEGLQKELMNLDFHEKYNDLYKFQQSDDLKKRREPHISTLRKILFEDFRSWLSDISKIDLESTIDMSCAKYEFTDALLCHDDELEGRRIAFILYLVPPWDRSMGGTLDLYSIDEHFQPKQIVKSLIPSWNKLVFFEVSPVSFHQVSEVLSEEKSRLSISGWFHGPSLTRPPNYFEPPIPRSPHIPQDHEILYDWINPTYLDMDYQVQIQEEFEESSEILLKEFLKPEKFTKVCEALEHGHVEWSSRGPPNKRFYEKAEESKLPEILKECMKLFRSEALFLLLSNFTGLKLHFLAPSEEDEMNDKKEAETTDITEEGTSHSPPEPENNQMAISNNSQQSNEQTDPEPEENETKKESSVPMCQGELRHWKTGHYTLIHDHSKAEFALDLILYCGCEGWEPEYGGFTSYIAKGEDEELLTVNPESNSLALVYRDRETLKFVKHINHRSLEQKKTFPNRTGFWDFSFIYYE
UniProt Q6P3W7: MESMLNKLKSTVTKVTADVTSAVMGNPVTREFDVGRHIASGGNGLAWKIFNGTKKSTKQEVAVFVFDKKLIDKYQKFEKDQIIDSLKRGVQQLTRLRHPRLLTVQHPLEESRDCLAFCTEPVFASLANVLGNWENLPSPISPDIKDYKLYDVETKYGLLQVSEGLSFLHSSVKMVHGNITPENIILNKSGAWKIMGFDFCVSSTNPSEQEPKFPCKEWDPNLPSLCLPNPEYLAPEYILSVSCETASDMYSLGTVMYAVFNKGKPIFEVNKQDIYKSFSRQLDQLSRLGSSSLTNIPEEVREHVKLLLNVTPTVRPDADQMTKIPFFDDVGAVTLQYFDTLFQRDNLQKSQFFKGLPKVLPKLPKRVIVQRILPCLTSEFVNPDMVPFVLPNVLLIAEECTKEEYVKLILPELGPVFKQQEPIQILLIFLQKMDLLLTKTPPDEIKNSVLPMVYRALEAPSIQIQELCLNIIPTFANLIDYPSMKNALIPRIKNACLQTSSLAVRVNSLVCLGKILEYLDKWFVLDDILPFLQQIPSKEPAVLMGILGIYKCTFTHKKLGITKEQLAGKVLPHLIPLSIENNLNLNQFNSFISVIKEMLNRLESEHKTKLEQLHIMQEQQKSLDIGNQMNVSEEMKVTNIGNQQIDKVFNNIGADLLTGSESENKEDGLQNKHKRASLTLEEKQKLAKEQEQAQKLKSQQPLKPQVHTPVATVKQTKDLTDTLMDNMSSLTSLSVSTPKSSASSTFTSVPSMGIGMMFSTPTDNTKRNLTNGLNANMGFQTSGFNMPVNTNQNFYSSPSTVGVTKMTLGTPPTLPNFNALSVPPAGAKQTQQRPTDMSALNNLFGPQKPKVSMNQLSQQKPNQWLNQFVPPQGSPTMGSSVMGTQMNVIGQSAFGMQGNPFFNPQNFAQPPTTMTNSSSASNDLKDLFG
UniProt Q8IY67: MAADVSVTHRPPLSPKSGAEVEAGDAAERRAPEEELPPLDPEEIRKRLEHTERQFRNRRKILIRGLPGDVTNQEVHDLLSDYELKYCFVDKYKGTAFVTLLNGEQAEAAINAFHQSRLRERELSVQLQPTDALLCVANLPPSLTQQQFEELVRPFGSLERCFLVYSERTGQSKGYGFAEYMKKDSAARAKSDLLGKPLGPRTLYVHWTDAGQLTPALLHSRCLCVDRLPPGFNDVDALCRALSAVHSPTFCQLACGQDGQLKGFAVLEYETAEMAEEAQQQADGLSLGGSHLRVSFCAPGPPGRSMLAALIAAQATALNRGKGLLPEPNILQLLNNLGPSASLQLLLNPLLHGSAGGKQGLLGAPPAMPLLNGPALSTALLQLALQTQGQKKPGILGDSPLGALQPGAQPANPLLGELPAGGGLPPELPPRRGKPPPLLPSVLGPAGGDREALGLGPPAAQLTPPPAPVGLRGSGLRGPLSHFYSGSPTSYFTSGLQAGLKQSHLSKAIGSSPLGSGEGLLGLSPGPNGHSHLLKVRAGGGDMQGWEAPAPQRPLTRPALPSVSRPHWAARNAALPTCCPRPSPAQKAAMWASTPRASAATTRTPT
UniProt O95299, whole entry: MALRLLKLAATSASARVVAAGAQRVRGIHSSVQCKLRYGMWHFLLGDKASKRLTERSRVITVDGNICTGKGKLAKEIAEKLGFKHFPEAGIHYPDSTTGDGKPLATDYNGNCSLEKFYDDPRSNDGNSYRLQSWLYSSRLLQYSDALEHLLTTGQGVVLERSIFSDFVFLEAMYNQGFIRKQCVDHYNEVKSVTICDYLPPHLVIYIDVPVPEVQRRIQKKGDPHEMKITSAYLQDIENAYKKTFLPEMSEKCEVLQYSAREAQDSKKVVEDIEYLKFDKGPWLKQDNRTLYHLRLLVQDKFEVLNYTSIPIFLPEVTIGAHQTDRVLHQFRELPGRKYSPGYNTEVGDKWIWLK
UniProt O15213: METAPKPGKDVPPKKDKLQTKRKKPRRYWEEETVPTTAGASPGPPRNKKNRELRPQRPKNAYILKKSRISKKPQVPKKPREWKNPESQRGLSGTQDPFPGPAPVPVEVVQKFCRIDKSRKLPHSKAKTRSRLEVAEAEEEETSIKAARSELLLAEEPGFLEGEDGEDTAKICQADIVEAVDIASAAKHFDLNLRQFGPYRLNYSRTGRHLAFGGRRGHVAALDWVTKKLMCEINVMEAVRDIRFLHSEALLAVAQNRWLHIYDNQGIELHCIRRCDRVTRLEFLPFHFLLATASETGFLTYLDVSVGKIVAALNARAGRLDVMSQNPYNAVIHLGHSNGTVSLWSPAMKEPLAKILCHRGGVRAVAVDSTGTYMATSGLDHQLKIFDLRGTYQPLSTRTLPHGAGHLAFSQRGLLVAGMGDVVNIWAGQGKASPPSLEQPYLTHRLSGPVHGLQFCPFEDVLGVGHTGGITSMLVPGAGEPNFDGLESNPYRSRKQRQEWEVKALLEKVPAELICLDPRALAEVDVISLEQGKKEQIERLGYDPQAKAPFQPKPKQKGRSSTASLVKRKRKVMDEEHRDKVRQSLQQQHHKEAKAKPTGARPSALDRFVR
UniProt Q01844: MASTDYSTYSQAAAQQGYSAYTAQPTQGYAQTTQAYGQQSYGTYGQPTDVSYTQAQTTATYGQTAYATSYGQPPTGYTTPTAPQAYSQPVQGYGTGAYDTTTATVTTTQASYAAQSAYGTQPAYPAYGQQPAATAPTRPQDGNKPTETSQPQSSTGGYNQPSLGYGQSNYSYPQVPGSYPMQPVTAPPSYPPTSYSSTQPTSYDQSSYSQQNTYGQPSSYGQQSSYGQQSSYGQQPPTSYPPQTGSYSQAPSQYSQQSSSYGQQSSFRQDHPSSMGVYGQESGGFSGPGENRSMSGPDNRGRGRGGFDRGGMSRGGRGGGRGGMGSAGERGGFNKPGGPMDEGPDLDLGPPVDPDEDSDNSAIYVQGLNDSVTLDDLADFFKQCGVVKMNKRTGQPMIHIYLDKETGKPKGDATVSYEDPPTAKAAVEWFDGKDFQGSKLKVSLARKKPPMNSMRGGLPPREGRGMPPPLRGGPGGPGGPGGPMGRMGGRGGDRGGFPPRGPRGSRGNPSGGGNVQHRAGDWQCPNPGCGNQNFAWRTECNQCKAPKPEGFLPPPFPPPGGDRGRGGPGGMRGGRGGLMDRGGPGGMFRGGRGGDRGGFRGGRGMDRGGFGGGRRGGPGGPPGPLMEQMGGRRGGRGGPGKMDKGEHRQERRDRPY
UniProt Q96CW1: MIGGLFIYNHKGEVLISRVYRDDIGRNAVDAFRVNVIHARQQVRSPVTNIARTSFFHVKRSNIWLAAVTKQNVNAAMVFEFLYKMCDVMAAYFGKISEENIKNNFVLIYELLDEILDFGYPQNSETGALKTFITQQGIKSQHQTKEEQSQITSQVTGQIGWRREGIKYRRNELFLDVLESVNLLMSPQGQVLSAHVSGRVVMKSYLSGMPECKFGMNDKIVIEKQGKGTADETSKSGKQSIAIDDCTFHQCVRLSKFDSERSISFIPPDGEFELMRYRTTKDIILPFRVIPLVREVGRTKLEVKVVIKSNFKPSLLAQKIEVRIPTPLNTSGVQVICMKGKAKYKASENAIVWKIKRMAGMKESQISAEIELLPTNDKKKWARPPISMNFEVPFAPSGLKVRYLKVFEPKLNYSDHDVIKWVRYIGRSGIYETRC
UniProt O75386: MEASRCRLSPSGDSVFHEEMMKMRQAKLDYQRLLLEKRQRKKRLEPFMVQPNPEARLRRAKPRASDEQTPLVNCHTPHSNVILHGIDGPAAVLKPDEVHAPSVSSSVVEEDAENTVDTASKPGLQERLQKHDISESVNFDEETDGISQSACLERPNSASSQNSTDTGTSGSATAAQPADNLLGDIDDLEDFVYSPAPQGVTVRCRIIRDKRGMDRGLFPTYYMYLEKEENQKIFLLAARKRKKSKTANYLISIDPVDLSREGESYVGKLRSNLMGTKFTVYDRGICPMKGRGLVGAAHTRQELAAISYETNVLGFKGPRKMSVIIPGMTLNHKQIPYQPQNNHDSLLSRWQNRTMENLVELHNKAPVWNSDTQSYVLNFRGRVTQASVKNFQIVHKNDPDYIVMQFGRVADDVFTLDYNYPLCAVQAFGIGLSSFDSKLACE
UniProt Q9NZ72: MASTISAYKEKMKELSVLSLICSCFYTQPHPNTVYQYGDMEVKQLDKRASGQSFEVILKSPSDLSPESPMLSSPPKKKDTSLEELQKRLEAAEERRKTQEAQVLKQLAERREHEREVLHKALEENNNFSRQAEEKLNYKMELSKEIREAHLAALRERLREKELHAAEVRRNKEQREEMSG

Compound: Nc1ncnc2c1ncn2[C@@H]1O[C@H](COP(=O)(O)OP(=O)(O)NP(=O)(O)O)[C@@H](O)[C@H]1O [adenylyl imidodiphosphate]
Test: NP40-soluble protein abundance relative to vehicle (solubility fold change) (ratio); higher = more soluble protein in presence of AMP-PNP
Summary of the method: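 Each value is a fold change relative to the detergent-processed vehicle, calculated per replicate from vsn-normalised intensities. Jurkat crude lysate received eight concentrations (0.1 to 10 mM) for 10 min at room temperature and 3 min at 37 °C, then was solubilised in 0.8% NP40 with benzonase (60 min, 4 °C). The ultracentrifuged supernatant was TMT-labelled and run by LC-MS/MS in three independent experiments.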

Target	NP40-soluble protein abundance (concentration: 1mM)	NP40-soluble protein abundance (concentration: 2mM)	NP40-soluble protein abundance (concentration: 4mM)	NP40-soluble protein abundance (concentration: 6mM)	NP40-soluble protein abundance (concentration: 8mM)	NP40-soluble protein abundance (concentration: 10mM)
A0A0C4DGH2|P62070 and related entries (UniProt P62070)	0.999 ± 0.022	0.994 ± 0.045	1.05 ± 0.066	1.1 ± 0.068	1.08 ± 0.053	1.1 ± 0.057
A0A087WY82|Q9Y624 (UniProt Q9Y624)	1.02 ± 0.057	1.05 ± 0.079	0.987 ± 0.031	0.994 ± 0.033	0.987 ± 0.02	1 ± 0.052
A0A0A0MRN1|Q5T8I9 (UniProt Q5T8I9)	1.03 ± 0.03	1.03 ± 0.015	1 ± 0.026	0.981 ± 0.045	0.983 ± 0.021	0.9888 ± 0.0068
A0A0A0MRB7|P15923-2|X6REB3 (UniProt P15923)	1.014 ± 0.0025	1.06 ± 0.085	1.02 ± 0.033	1 ± 0.014	0.962 ± 0.02	0.974 ± 0.041
A0A0J9YW33|Q13277 and related entries (UniProt Q13277)	1.02 ± 0.022	1.04 ± 0.03	1.05 ± 0.011	1.05 ± 0.031	1.06 ± 0.023	1.06 ± 0.023
A0A0D9SF54|A0A0D9SGF6|Q13813 and related entries (UniProt Q13813)	1.04 ± 0.051	1.06 ± 0.044	1.04 ± 0.044	1.08 ± 0.054	1.06 ± 0.039	1.08 ± 0.059
A0A0G2JR50|Q86SQ7 and related entries (UniProt Q86SQ7)	1 ± 0.021	1.03 ± 0.047	0.957 ± 0.049	0.935 ± 0.027	0.949 ± 0.024	0.94 ± 0.028
A0A0A0MT35|Q8TBF2 and related entries (UniProt Q8TBF2)	1 ± 0.038	0.996 ± 0.041	0.998 ± 0.048	1.01 ± 0.038	1.03 ± 0.026	1.04 ± 0.024
A0A087X243|P09211 (UniProt P09211)	0.979 ± 0.033	0.927 ± 0.045	0.95 ± 0.015	0.986 ± 0.035	0.993 ± 0.024	0.969 ± 0.039
A0A0A0MTR2|Q8N543 (UniProt Q8N543)	1.01 ± 0.017	0.975 ± 0.072	1.01 ± 0.057	0.967 ± 0.031	0.963 ± 0.037	0.946 ± 0.058
A0A0U1RQQ9|Q6P3W7 (UniProt Q6P3W7)	0.974 ± 0.023	0.962 ± 0.011	0.967 ± 0.018	0.976 ± 0.032	0.99 ± 0.028	0.985 ± 0.032
A0A0C4DG40|Q8NF91 and related entries (UniProt Q8NF91)	1.01 ± 0.014	1.02 ± 0.066	0.999 ± 0.053	0.984 ± 0.045	0.931 ± 0.027	0.963 ± 0.059
A0A087X0S7|A0A0B4J2G4|Q15345 and related entries (UniProt Q15345)	1.04 ± 0.014	1.07 ± 0.057	1.02 ± 0.018	1.02 ± 0.032	1.016 ± 0.0041	1.01 ± 0.033
A0A0B4J1S8|Q9UBF8 and related entries (UniProt Q9UBF8)	0.999 ± 0.022	1.01 ± 0.034	1.02 ± 0.026	0.969 ± 0.039	0.977 ± 0.016	0.961 ± 0.034
A0A0U1RR27|Q7Z401 and related entries (UniProt Q7Z401)	1.016 ± 0.01	1.09 ± 0.019	0.978 ± 0.044	0.994 ± 0.017	0.952 ± 0.02	0.96 ± 0.011
A0A087X211|Q8TCG1 and related entries (UniProt Q8TCG1)	1.03 ± 0.035	1.04 ± 0.029	0.97 ± 0.029	0.934 ± 0.042	0.9027 ± 0.0049	0.92 ± 0.017
A0A087WZ13|E9PAU2 (UniProt Q8IY67)	1.08 ± 0.052	1.05 ± 0.03	1.06 ± 0.04	1.047 ± 0.0051	1.04 ± 0.011	1.03 ± 0.012
A0A087WXC5|E7ESZ7 and related entries (UniProt O95299)	1.01 ± 0.026	0.981 ± 0.054	0.951 ± 0.016	0.927 ± 0.057	0.923 ± 0.047	0.896 ± 0.043
A0A140T9L0|O15213 (UniProt O15213)	0.994 ± 0.019	0.9887 ± 0.0036	1.04 ± 0.021	1.02 ± 0.012	0.992 ± 0.019	1.05 ± 0.02
A0A0A0MT23|A0A0A0MST9 (UniProt P27448)	1.07 ± 0.017	1.13 ± 0.073	1.15 ± 0.082	1.12 ± 0.035	1.14 ± 0.041	1.16 ± 0.012
A0A0A0MSS3|Q5T6P1 and related entries (UniProt Q8ND83)	1.06 ± 0.016	1.05 ± 0.091	1.038 ± 0.0018	1.04 ± 0.017	1.05 ± 0.021	1.05 ± 0.056
A0A0D9SFL3|B0QYK0 and related entries (UniProt Q01844)	1.01 ± 0.014	1.05 ± 0.069	0.992 ± 0.041	1.01 ± 0.02	1.01 ± 0.029	0.979 ± 0.048
A0A0A0MTL5|Q13309 and related entries (UniProt Q13309)	0.986 ± 0.041	0.965 ± 0.037	0.976 ± 0.029	0.932 ± 0.053	0.923 ± 0.036	0.91 ± 0.014
A0AVT1	0.978 ± 0.024	0.919 ± 0.09	0.959 ± 0.025	0.961 ± 0.014	0.949 ± 0.02	0.92 ± 0.023
A0A087WY71|Q96CW1 and related entries (UniProt Q96CW1)	0.966 ± 0.076	0.881 ± 0.055	1.02 ± 0.11	1.12 ± 0.094	1.22 ± 0.041	1.13 ± 0.12
A0A0A0MSV9|A0A0G2JH37|A0A0G2JKZ1|A2AB90 and related entries (UniProt O15533)	1.03 ± 0.076	1.03 ± 0.047	1.07 ± 0.064	1.01 ± 0.022	1.03 ± 0.046	1.01 ± 0.073
A0A087WYY4|O75386 and related entries (UniProt O75386)	0.997 ± 0.01	0.985 ± 0.049	1.01 ± 0.026	1.03 ± 0.033	1.03 ± 0.027	1.04 ± 0.022
A0A0J9YW36|Q9NZ72 and related entries (UniProt Q9NZ72)	0.9817 ± 0.0081	1.02 ± 0.048	0.977 ± 0.02	0.978 ± 0.037	0.964 ± 0.033	0.945 ± 0.016
A0A087X2I1|P62333 (UniProt P62333)	0.913 ± 0.05	0.853 ± 0.068	0.895 ± 0.1	0.899 ± 0.069	0.905 ± 0.079	0.895 ± 0.12

Part of the list above, limited to NP40-soluble protein abundance (concentration: 8mM) and NP40-soluble protein abundance (concentration: 10mM).
Target,NP40-soluble protein abundance (concentration: 8mM),NP40-soluble protein abundance (concentration: 10mM)
A0A0A0MSV9|A0A0G2JH37|A0A0G2JKZ1|A2AB90 and related entries (UniProt O15533),1.03 ± 0.046,1.01 ± 0.073
A0A087WYY4|O75386 and related entries (UniProt O75386),1.03 ± 0.027,1.04 ± 0.022
